Some entries share one result that the patent states for a list of compounds.
Experiment: Surface activity by captive bubble surfactometry (quasi-static cycling)
Assay type: physicochemical
Conditions: FIG. 1
Experimental: In this example, surface activity of the various peptides disclosed in the present disclosure were measured in mixtures of peptides and lipids using captive bubble surfactometry.
This example used peptide concentrations of 2-4% and a lipid mixture consisting of 5:3:2 (wt:wt:wt) DPPC:POPC:POPG. Lipids only were used a negative control and the clinical surfactant Infasurf™ as a positive control.
Low surface tension equals high surface activity.
Minimum tension values during the first 10 cycles of quasi-static cycling on the captive bubble surfactometer are compared with those of lipids only.
FIG. 2 compares 3% of B-YL (SEQ ID NO: 27), B-LYL (SEQ ID NO: 28) and B-AYL (SEQ ID NO: 29) in 5:3:2 (wt:wt:wt) DPPC:POPC:POPG with lipids only (negative control) and the clinical surfactant Infasurf™ (positive control). For comparison the minimum surface tension values of Super Mini-B (S-MB), Super Mini-B-DATK (S-MB-DATK) and Mini-B-DATK (MB-DATK) have been added to the figure.

[1] = 3% peptide in DPPC:POPC:POPG 5:3:2 (wt:wt:wt)

| Sequence | Minimum surface tension (mean) during first 10 cycles of quasi-static cycling [1] [mN/m] | Minimum surface tension (mean) during first 10 cycles of quasi-static cycling (2% peptide in DPPC:POPC:POPG 5:3:2 (wt:wt:wt)) [mN/m] | Minimum surface tension (mean) during first 10 cycles of quasi-static cycling (4% peptide in DPPC:POPC:POPG 5:3:2 (wt:wt:wt)) [mN/m] |
| --- | --- | --- | --- |
| FPIPLPYLWLYRALIKRIQALIPKGGRLLPQLVYRLVLRLS [B-LYL] | < 2 |  |  |
| FPIPLPYYWLYRALIKRIQALIPKGGRLLPQLVYRLVLRYS [B-YL] | < 2 | < 2 | < 2 |

Source: patent US10717777B2, “Synthetic lung surfactant with enhanced stability and effectiveness” (The Lundquist Institute for Biomedical Innovation at …, priority 2015, dated 2020)
